The other results are listed elsewhere or left out. Many values rest on one well or one pass, so single values are uncertain.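 The apoptosis fraction was the count of cleaved-PARP antibody-stained nuclei relative to all DNA-stained nuclei, imaged in 1,536-well plates. Screening doses were set so most cells survived, and baseline and induced cleaved-PARP levels vary greatly across cell lines.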
system: IST-MEL1; assay: cleaved PARP positive nuclei fraction relative to DMSO control; melanoma cells; higher = more apoptosis; settings: library dose: low library concentration; 72 h

| SMILES | cleaved PARP positive nuclei fraction [%] |
| --- | --- |
| O=C(/C=C/c1cccnc1)NCCCCC1CCN(C(=O)c2ccccc2)CC1 + CS(=O)(=O)c1ccc(C(=O)Nc2ccc(Cl)c(-c3ccccn3)c2)c(Cl)c1 [vismodegib] (first compound 0.01 µM, partner dose 1 µM) | 190 |
| O=C(Nc1cc(C(F)(F)F)cc(C(F)(F)F)c1)c1cc(Cl)ccc1O + CCCCCCCCc1ccc(CCC(N)(CO)CO)cc1 [fingolimod] (first compound 0.016 µM, partner dose 2 µM) | 83.2 |
| CC[C@]1(O)C[C@H]2CN(CCc3c([nH]c4ccccc34)[C@@](C(=O)OC)(c3cc4c(cc3OC)N(C=O)[C@H]3[C@@](O)(C(=O)OC)[C@H](OC(C)=O)[C@]5(CC)C=CCN6CC[C@]43[C@@H]65)C2)C1 [vincristine] + CCCCCCCCCCCCCCCCCCOP(=O)([O-])OC1CC[N+](C)(C)CC1 [Perifosine] (first compound 0.0001 µM, partner dose 0.4 µM) | 131 |
| Cc1cc(Nc2cc(N3CCN(C)CC3)nc(Sc3ccc(NC(=O)C4CC4)cc3)n2)n[nH]1 [Tozasertib] + C#Cc1cccc(Nc2ncnc3cc(OCCOC)c(OCCOC)cc23)c1 [erlotinib] (first compound 0.006 µM, partner dose 0.8 µM) | 131 |
| Cc1cc(Nc2cc(N3CCN(C)CC3)nc(Sc3ccc(NC(=O)C4CC4)cc3)n2)n[nH]1 [Tozasertib] + CO[C@H]1C[C@@H]2CC[C@@H](C)[C@@](O)(O2)C(=O)C(=O)N2CCCC[C@H]2C(=O)O[C@H]([C@H](C)C[C@@H]2CC[C@@H](OCCO)[C@H](OC)C2)CC(=O)[C@H](C)/C=C(\C)[C@@H](O)[C@@H](OC)C(=O)[C@H](C)C[C@H](C)/C=C/C=C/C=C/1C [everolimus] (first compound 0.006 µM, partner dose 0.02 µM) | 69 |
| Cc1ccc(Nc2nccc(N(C)c3ccc4c(C)n(C)nc4c3)n2)cc1S(N)(=O)=O [Pazopanib] + C#Cc1cccc(Nc2ncnc3cc(OCCOC)c(OCCOC)cc23)c1 [erlotinib] (first compound 0.4 µM, partner dose 0.8 µM) | 138 |
| CCCCCCCCCCCCCCCCCCOP(=O)([O-])OC1CC[N+](C)(C)CC1 [Perifosine] + C=C(c1ccc(C(=O)O)cc1)c1cc2c(cc1C)C(C)(C)CCC2(C)C [Bexarotene] (first compound 0.4 µM, partner dose 2 µM) | 59.4 |
| O=c1[nH]nc(Sc2ncc([N+](=O)[O-])s2)n1-c1ccc2c(c1)OCCO2 + Cc1cc(Nc2cc(N3CCN(C)CC3)nc(/C=C/c3ccccc3)n2)n[nH]1 [ENMD2076] (first compound 0.2 µM, partner dose 0.04 µM) | 144 |
| CCCCCCCCCCCCCCCCCCOP(=O)([O-])OC1CC[N+](C)(C)CC1 [Perifosine] + Clc1ccc(Nc2nnc(Cc3ccncc3)c3ccccc23)cc1 [vatalanib] (first compound 0.4 µM, partner dose 2 µM) | 33 |
| Cc1cn(-c2cc(NC(=O)c3ccc(C)c(Nc4nccc(-c5cccnc5)n4)c3)cc(C(F)(F)F)c2)cn1 [nilotinib] + Cn1nnc2c(C(N)=O)ncn2c1=O [temozolomide] (first compound 0.2 µM, partner dose 2 µM) | 32.9 |

system: LB2518-MEL; assay: as above; settings: library dose: low library concentration; 72 h

| SMILES | cleaved PARP positive nuclei fraction [%] |
| --- | --- |
| CC[C@]1(O)C[C@H]2CN(CCc3c([nH]c4ccccc34)[C@@](C(=O)OC)(c3cc4c(cc3OC)N(C=O)[C@H]3[C@@](O)(C(=O)OC)[C@H](OC(C)=O)[C@]5(CC)C=CCN6CC[C@]43[C@@H]65)C2)C1 [vincristine] + CO[C@H]1C[C@@H]2CC[C@@H](C)[C@@](O)(O2)C(=O)C(=O)N2CCCC[C@H]2C(=O)O[C@H]([C@H](C)C[C@@H]2CC[C@@H](OCCO)[C@H](OC)C2)CC(=O)[C@H](C)/C=C(\C)[C@@H](O)[C@@H](OC)C(=O)[C@H](C)C[C@H](C)/C=C/C=C/C=C/1C [everolimus] (first compound 0.0001 µM, partner dose 0.02 µM) | 66.6 |
| COc1cc([C@@H]2c3cc4c(cc3[C@@H](O[C@@H]3O[C@@H]5CO[C@@H](C)O[C@H]5[C@H](O)[C@H]3O)[C@H]3COC(=O)[C@H]23)OCO4)cc(OC)c1O [etoposide] + CC1(C)CCC(c2ccc(Cl)cc2)=C(CN2CCN(c3ccc(C(=O)NS(=O)(=O)c4ccc(N[C@H](CCN5CCOCC5)CSc5ccccc5)c(S(=O)(=O)C(F)(F)F)c4)cc3)CC2)C1 [ABT263] (first compound 0.02 µM, partner dose 0.4 µM) | 429 |
| CC[C@]1(O)C[C@H]2CN(CCc3c([nH]c4ccccc34)[C@@](C(=O)OC)(c3cc4c(cc3OC)N(C=O)[C@H]3[C@@](O)(C(=O)OC)[C@H](OC(C)=O)[C@]5(CC)C=CCN6CC[C@]43[C@@H]65)C2)C1 [vincristine] + NC(=O)c1ccc(N(C(N)=O)c2c(F)cccc2F)nc1-c1ccc(F)cc1F [VX702] (first compound 0.0001 µM, partner dose 0.4 µM) | 111 |
| Cc1ccc(Nc2nccc(N(C)c3ccc4c(C)n(C)nc4c3)n2)cc1S(N)(=O)=O [Pazopanib] + C=CCNC1=C2C[C@@H](C)C[C@H](OC)[C@H](O)[C@@H](C)/C=C(\C)[C@H](OC(N)=O)[C@@H](OC)/C=C\C=C(/C)C(=O)NC(=CC1=O)C2=O [Tanespimycin] (first compound 0.4 µM, partner dose 0.002 µM) | 127 |
| O=C(Nc1cc(C(F)(F)F)cc(C(F)(F)F)c1)c1cc(Cl)ccc1O + Cn1c(=O)n(-c2ccc(C(C)(C)C#N)cc2)c2c3cc(-c4cnc5ccccc5c4)ccc3ncc21 [NVP-BEZ235] (first compound 0.016 µM, partner dose 0.004 µM) | 98.1 |
| Cc1cn(-c2cc(NC(=O)c3ccc(C)c(Nc4nccc(-c5cccnc5)n4)c3)cc(C(F)(F)F)c2)cn1 [nilotinib] + Cc1nc(Nc2ncc(C(=O)Nc3c(C)cccc3Cl)s2)cc(N2CCN(CCO)CC2)n1 [dasatanib] (first compound 0.2 µM, partner dose 0.004 µM) | 53 |
| Cc1cc(Nc2cc(N3CCN(C)CC3)nc(Sc3ccc(NC(=O)C4CC4)cc3)n2)n[nH]1 [Tozasertib] + O=C(O)c1ccc2c(c1)nc(Nc1cccc(Cl)c1)c1ccncc12 [CX4945] (first compound 0.006 µM, partner dose 0.4 µM) | 211 |
| O=C(Nc1cc(C(F)(F)F)cc(C(F)(F)F)c1)c1cc(Cl)ccc1O + CO[C@H]1C[C@@H]2CC[C@@H](C)[C@@](O)(O2)C(=O)C(=O)N2CCCC[C@H]2C(=O)O[C@H]([C@H](C)C[C@@H]2CC[C@@H](OCCO)[C@H](OC)C2)CC(=O)[C@H](C)/C=C(\C)[C@@H](O)[C@@H](OC)C(=O)[C@H](C)C[C@H](C)/C=C/C=C/C=C/1C [everolimus] (first compound 0.016 µM, partner dose 0.02 µM) | 293 |
| Cc1cc(Nc2cc(N3CCN(C)CC3)nc(Sc3ccc(NC(=O)C4CC4)cc3)n2)n[nH]1 [Tozasertib] + Nc1cccc2c1CN(C1CCC(=O)NC1=O)C2=O [lenalidomide] (first compound 0.006 µM, partner dose 1 µM) | 320 |
| O=C(Nc1cc(C(F)(F)F)cc(C(F)(F)F)c1)c1cc(Cl)ccc1O + Cn1nnc2c(C(N)=O)ncn2c1=O [temozolomide] (first compound 0.016 µM, partner dose 2 µM) | 194 |
| COc1cc([C@@H]2c3cc4c(cc3[C@@H](O[C@@H]3O[C@@H]5CO[C@@H](C)O[C@H]5[C@H](O)[C@H]3O)[C@H]3COC(=O)[C@H]23)OCO4)cc(OC)c1O [etoposide] + Cn1sc(=O)n(Cc2ccccc2)c1=O [TDZD-8] (first compound 0.02 µM, partner dose 0.4 µM) | 112 |
| Cc1cn(-c2cc(NC(=O)c3ccc(C)c(Nc4nccc(-c5cccnc5)n4)c3)cc(C(F)(F)F)c2)cn1 [nilotinib] + Nc1nc(F)nc2c1ncn2[C@@H]1O[C@H](CO)[C@@H](O)[C@@H]1O [fludarabine] (first compound 0.2 µM, partner dose 0.2 µM) | 138 |
| O=c1[nH]nc(Sc2ncc([N+](=O)[O-])s2)n1-c1ccc2c(c1)OCCO2 + CO[C@H]1C[C@@H]2CC[C@@H](C)[C@@](O)(O2)C(=O)C(=O)N2CCCC[C@H]2C(=O)O[C@H]([C@H](C)C[C@@H]2CC[C@@H](OCCO)[C@H](OC)C2)CC(=O)[C@H](C)/C=C(\C)[C@@H](O)[C@@H](OC)C(=O)[C@H](C)C[C@H](C)/C=C/C=C/C=C/1C [everolimus] (first compound 0.2 µM, partner dose 0.02 µM) | 449 |
| O=c1[nH]nc(Sc2ncc([N+](=O)[O-])s2)n1-c1ccc2c(c1)OCCO2 + Cn1nnc2c(C(N)=O)ncn2c1=O [temozolomide] (first compound 0.2 µM, partner dose 2 µM) | 107 |
| Cc1cc(Nc2cc(N3CCN(C)CC3)nc(Sc3ccc(NC(=O)C4CC4)cc3)n2)n[nH]1 [Tozasertib] + C[C@@H](Oc1cc(-c2cnn(C3CCNCC3)c2)cnc1N)c1c(Cl)ccc(F)c1Cl [Crizotinib] (first compound 0.006 µM, partner dose 0.2 µM) | 134 |

In another format: results already given.
SMILES,cleaved PARP positive nuclei fraction [%]
"Cc1cn(-c2cc(NC(=O)c3ccc(C)c(Nc4nccc(-c5cccnc5)n4)c3)cc(C(F)(F)F)c2)cn1 [nilotinib] + Cc1nc(Nc2ncc(C(=O)Nc3c(C)cccc3Cl)s2)cc(N2CCN(CCO)CC2)n1 [dasatanib] (first compound 0.2 µM, partner dose 0.004 µM)",53
"Cc1cc(Nc2cc(N3CCN(C)CC3)nc(Sc3ccc(NC(=O)C4CC4)cc3)n2)n[nH]1 [Tozasertib] + O=C(O)c1ccc2c(c1)nc(Nc1cccc(Cl)c1)c1ccncc12 [CX4945] (first compound 0.006 µM, partner dose 0.4 µM)",211
